Measured values taken from patent US20040131701A1, “Method to treat infectious diseases and/or to enhance antimicrobial efficacy of drugs” (Virocell Inc., priority 2000, published 2004).
At least one structure is not confirmed: it was looked up by name or label, or the drawing left a doubt.

How the values were obtained:
[1] = test system: recombinant luciferase-encoding virions (NL4-3 backbone) pseudotyped with macrophage-tropic ADA envelope; experiment: Infection of primary human MDM with luciferase-encoding virions, ADA envelope; type: cell-based, HIV-1; details: 0.035 μM alone, 15 min pretreatment, 48 h
From the text: (§1) Fully infectious viral entities were generated by calcium phosphate transfection of 293T with pNL4-3 vector (T-tropic virions) as described below. Recombinant luciferase-encoding virus particles pseudotyped with the appropriate Env proteins have been used in our series of investigations. […] This test is based on the molecular construct pNL4-3-Luc-E-R+, a vector that carries the gene for firefly luciferase inserted into the nef gene of the pNL4-3 provirus and contains also a frameshift at the 5′ end of env (nt 5950) that prevents expression of the envelope glycoproteins. Progeny viruses were generated by cotransfecting 293T cells with pNL4-3-Luc-E-R+ and a plasmid DNA encoding for the appropriate envelope glycoproteins (T or macrophage-tropic). Briefly, a typical transfection experiment was performed as follow. In brief, 293T cells were plated 24 h before transfection at a concentration of 5×10^5 cells per 3 ml of DMEM into each well of 6-well plates. All solutions were brought to room temperature before use. […]
(§2) In brief, 100 μl of cell-free supernatant were discarded from each well and 25 μl of cell culture lysis buffer 5×(125 mM Tris phosphate [pH 7.8], 10 mM DTT, 5% Triton X-100, and 50% glycerol) were added to the wells before incubation at room temperature for 30 min. […] Luciferase activity was monitored using a microplate luminometer (MLX; Dynex Technologies, Chantilly, Va.).

[2] = test system: recombinant luciferase-encoding virions (NL4-3 backbone) pseudotyped with T-tropic HXB-2D envelope; experiment: Infection of Jurkat cells with luciferase-encoding virions, HXB-2D envelope; type: cell-based, HIV-1; details: antiviral agent alone 0.05 μM, 72 h
From the text: as §1
as §2, with “Va.). […]” for “Va.).”

Nc1ccn([C@@H]2CS[C@H](CO)O2)c(=O)n1 [3TC, Lamivudine, reference compound]
virus infection (luciferase activity) [1]: diminish the process of virus infection
virus infection (luciferase activity) [2]: decreased
